According to US20190083482A1, “PRMT5 INHIBITORS AND USES THEREOF” (Epizyme, Inc., priority 2017, published 2019):
Structures were worked out from names or drawings and are uncertain.

Chains of the proteins cited; added tags and fusions are not shown. A line that says so, or that is headed by a name, gives the form on record, which may keep a tag or linker. Residues count along the entry.
UniProt O14744, 2-637 with tags or gaps: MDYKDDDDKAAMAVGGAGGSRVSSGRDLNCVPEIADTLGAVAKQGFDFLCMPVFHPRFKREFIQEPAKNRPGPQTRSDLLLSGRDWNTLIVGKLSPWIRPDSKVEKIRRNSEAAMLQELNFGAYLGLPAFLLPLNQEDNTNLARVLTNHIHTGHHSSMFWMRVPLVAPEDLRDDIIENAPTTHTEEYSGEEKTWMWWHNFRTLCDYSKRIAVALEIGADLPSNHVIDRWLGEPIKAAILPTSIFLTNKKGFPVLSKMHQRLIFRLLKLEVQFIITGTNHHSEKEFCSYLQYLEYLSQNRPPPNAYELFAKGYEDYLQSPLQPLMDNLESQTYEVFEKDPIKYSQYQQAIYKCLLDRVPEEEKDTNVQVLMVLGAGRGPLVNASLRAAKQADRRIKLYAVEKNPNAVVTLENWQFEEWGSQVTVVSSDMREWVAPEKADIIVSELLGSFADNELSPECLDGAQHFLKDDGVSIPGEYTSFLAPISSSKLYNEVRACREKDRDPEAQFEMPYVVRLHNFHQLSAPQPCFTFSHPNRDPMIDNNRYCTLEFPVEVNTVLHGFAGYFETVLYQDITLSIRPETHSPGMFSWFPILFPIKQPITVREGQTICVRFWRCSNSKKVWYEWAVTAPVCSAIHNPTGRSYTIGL
UniProt Q9BQA1, 2-342 with tags or gaps partner limits assumed: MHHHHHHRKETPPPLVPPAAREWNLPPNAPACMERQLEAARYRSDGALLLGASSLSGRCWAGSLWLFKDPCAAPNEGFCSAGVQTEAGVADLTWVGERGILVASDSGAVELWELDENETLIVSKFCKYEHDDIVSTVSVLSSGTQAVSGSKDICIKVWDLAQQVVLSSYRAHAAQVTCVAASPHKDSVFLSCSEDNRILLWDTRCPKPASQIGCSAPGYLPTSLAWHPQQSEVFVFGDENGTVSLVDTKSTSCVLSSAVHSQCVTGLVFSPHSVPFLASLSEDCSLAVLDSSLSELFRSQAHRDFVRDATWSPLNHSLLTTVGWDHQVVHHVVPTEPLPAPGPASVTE

Columns and labels:
PRMT5/MEP50 = PRMT5/MEP50 (Homo sapiens, UniProt O14744); test: PRMT5 Biochemical Assay (PRMT5/MEP50 enzyme assay on peptide substrate, 3H-SAM Flashplate); settings: read-out: Biochemical IC50; PRMT5/MEP50 4 nM, 3H-SAM 75 nM, peptide 40 nM
Z-138 cell line = test: Z-138 Proliferation Assay (Cell Titer Glo); settings: read-out: Proliferation EC50; Z-138 cells, 5 days incubation, top concentration 20 μM
[1] = system: symmetric di-methyl arginine in Z-138 cells; test: Z-138 Methylation Assay (In Cell Western for symmetric di-methyl arginine); settings: read-out: ICW EC50, 96 hours incubation

SMILES: O=C(COc1ccc2c(cnn2C2CCNCC2)c1)NCC(O)CN1CCc2ccccc2C1 (stereo not drawn)
- IC50 (PRMT5/MEP50): < 100 nM
- EC50 (Z-138 cell line): > 20000 nM
- EC50 [1]: 101 to 1000 nM

SMILES: CN1CCC(n2ncc3cc(OCC(=O)NCC(O)CN4CCc5ccccc5C4)ccc32)CC1 (stereo not drawn)
- IC50 (PRMT5/MEP50): < 100 nM
- EC50 (Z-138 cell line): > 20000 nM
- EC50 [1]: 101 to 1000 nM
